According to US20080008719A1 (Alexion, published 2008):
Results are given in words; binding and its absence hold for the method and conditions named. In cells and extracts the contact can be indirect. These calls come from enrichment with a bait or labelling near it, and not all partners need be listed.

Amino acid sequences for entries named in this document (tags omitted). A change or cut given only in a name is not applied to a line headed by its entry.
UniProt P23229: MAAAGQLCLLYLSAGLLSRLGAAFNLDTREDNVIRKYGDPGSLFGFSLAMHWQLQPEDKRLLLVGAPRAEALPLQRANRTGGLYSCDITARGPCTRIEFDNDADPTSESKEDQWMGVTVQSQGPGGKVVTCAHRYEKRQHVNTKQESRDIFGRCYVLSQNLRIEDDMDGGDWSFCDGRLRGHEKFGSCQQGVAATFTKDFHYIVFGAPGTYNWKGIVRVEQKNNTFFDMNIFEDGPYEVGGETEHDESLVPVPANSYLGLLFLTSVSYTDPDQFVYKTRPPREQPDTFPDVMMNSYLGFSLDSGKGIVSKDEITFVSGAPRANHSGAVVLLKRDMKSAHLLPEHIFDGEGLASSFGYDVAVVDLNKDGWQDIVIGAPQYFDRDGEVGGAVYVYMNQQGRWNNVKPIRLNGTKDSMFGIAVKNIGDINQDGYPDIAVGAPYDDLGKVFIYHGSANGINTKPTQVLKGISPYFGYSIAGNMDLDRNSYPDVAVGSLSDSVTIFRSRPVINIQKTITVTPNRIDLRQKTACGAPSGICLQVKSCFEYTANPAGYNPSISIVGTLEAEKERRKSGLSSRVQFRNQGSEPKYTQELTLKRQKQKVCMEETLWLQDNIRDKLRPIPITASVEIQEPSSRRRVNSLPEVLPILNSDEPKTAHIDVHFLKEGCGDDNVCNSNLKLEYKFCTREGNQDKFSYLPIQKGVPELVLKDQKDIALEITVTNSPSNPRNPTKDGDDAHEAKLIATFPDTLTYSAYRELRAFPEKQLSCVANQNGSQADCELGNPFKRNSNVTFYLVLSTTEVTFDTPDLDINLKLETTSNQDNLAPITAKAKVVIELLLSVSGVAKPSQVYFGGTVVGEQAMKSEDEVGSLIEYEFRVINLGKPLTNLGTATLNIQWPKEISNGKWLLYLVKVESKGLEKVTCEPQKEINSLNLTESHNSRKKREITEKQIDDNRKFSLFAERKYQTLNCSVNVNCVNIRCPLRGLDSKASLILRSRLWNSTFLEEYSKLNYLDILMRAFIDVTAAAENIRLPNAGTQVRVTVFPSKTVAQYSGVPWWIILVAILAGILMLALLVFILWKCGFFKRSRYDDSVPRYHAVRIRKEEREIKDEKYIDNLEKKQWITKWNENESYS

Target: Integrin alpha6/beta4 (human) (UniProt P23229)
Experiment: immunoprecipitation from PC-3 membrane lysate with biotinylated Fab, mass spectrometry

- binding: binds
B1: Fab 65A12 (Fab, V domains shown)
VH: EVQLQQSGPELVKPGASVKISCKTSGYTFTEYTMHWVKQSHGKSLEWIGGINPNNGGTNYNQKFKGKATLTVDKSSSTAYMELRSLTSEDSAVYYCARWTGDFDVWGAGTTVTVSS
VL: DIVMTQSQKFMSTSVGDRVSVTCKASQNVGTNVAWYQQKPGQSPDALIYSASYRYSGVPDRFTGSGSGTDFTLTITNVQSEDLADYFCQQYNSYPLTFGSGTKLDLKR
